PubChem BioAssay AID720533 (National Center for Advancing Translational Sciences (NCATS), 2013)
Several values for one entry are separate records, joined by “and”; a condition that tells them apart may be missing. Identical values can stand only once. The campaign covered roughly 18,000 compounds. About 750 (4.2%) were called active. The inconclusive results got no clear call from the source; some entries with a clear call stand among them for comparison. Calls come from the whole dose curve; tested in HEK293 cells. Potencies beside an inconclusive call are fits to weak or partial responses and may not hold up. Residues, ends and D or L forms follow the SMILES beside them.

Experiment: qHTS for Inhibitors of binding or entry into cells for Lassa Virus
Settings: Lassa virus pseudotyped entry inhibition, cell-based qHTS; activity change, negative = inhibition: at 49.2 µM (top of the series) unless noted
% is set by controls: 0 for no effect and ±100 for the full control effect; potency is the fitted concentration of half-maximal effect.

| Structure (SMILES) | Potency | activity change, negative = inhibition |
| --- | --- | --- |
| COc1ccc(CN2Cc3ccccc3Oc3ccc(Cl)cc3S2(=O)=O)cc1 | inconclusive: 28.1 µM [inhibitor, single point] |  |
| O=c1cc(-c2ccccc2O)oc2ccc3ccccc3c12 | inconclusive: 12.6 µM [inhibitor, partial curve] |  |
| COc1cc2c(cc1OC)[C@H](C)NCC2 |  | inactive: 5.08% [at 17.8 µM] |
| C[C@]12CCC3c4ccc(O)cc4CCC3[C@@H]1CCC2=O (some centres undefined) |  | inactive: -16.9% [at 17.8 µM] |
| O=C(OC1CNC(C#Cc2cc3ncnc(Nc4ccc5c(ccn5Cc5cc(F)ccc5F)c4)c3s2)C1)N1CCOCC1 (centres undefined) | inconclusive: 3.97 µM [inhibitor, partial curve, poor fit] |  |
| O=C([C@@H]1C[C@@H](Sc2nc3ccccc3[nH]2)CN1Cc1ccc(C(F)(F)F)cc1)N1CCN(c2ccccc2F)CC1 |  | inactive: -16.5% |
| COc1ccc(C2/C=C\CN(S(=O)(=O)c3ccc(C)cc3)CC(=O)N2Cc2cccc(F)c2)cc1 (centres undefined) | inconclusive: 25.1 µM [inhibitor, single point] |  |
| C=C1[C@@H](C)[C@H]2[C@H](Cc3ccccc3)NC(=O)[C@]23[C@H](OC(C)=O)/C=C/[C@](C)(O)C(=O)[C@@H](C)C/C=C/[C@H]3[C@@H]1O | inconclusive: 14.1 µM [inhibitor, full curve, poor fit] |  |
| O=C1NN(C(=O)Nc2ccc(Br)cc2)C(c2ccccc2)C1c1ccccc1 (centres undefined) | inconclusive: 2.51 µM [inhibitor, partial curve] |  |
| CC(C)C(=O)OCC(=O)[C@@]12O[C@H](C3CCCCC3)O[C@@H]1C[C@H]1[C@@H]3CCC4=CC(=O)C=C[C@]4(C)[C@H]3[C@@H](O)C[C@@]12C | active: 28.2 µM |  |
| Cc1ccc(OC[C@H](O)[C@H](C)NC(C)C)c2c1CCC2 | inconclusive: 28.2 µM [inhibitor, partial curve, poor fit] |  |
| NC(=O)CNC(=O)[C@H](Cc1ccccc1)NC(=O)[C@H](CCCN=C(N)N)NC(=O)[C@@H](N)Cc1ccc(O)cc1 (H-YRFG-NH2) |  | inactive: 6.55% |
| COc1ccccc1-n1cc(C(=O)NCCN2Cc3ccccc3OC(c3ccsc3)C2)cn1 (centres undefined) |  | inactive: -11.9% |
| CN(C)c1ccc(-c2cc(NCc3cccnc3)ncn2)cc1 |  | inactive: 1.55% |
| C=C(C)[C@H]1Cc2c(ccc3c2O[C@@H]2COc4cc(OC)c(OC)cc4[C@@H]2C3=O)O1 | inconclusive: 5.01 µM [inhibitor, full curve, poor fit] and inconclusive: 39.8 µM [inhibitor, partial curve] |  |
| C=C1C[C@H](OC(=O)C(C)(O)CCl)C2C(=C)C(=O)O[C@@H]2C2C1C[C@H](O)[C@]2(O)CCl (some centres undefined) | inconclusive: 35.5 µM [inhibitor, single point] |  |
| CCCc1ccc(C(=O)O)cc1 |  | inactive: -15.1% |
| CCN1C(=NCc2cccc(Cl)c2)NC(c2cccc(C(F)(F)F)c2)C(C(=O)OC)=C1C (centres undefined) |  | inconclusive: -42% [inhibitor] [at 8.59 µM] |
| O=C(C=Cc1ccccc1)c1ccccc1O |  | inconclusive: -7.6% [inhibitor] [at 8.59 µM] |
| CCCCC/C=C\C/C=C\C/C=C\C/C=C\CCCCCC(=O)NC(C)C(=O)O (centres undefined) |  | inactive: -12.7% |

| Structure (SMILES) | Potency | activity change, negative = inhibition |
| --- | --- | --- |
| C=C(C)CN1CC[C@@]23c4c5ccc(O)c4O[C@H]2c2[nH]c4ccccc4c2C[C@]3(O)[C@@H]1C5 | inconclusive: 28.2 µM [inhibitor, partial curve] |  |
| COc1ccc(NC(=O)c2cc(OCCCN(C)C)nn2Cc2ccccc2)cc1 | inconclusive: 35.5 µM [inhibitor, single point] |  |
| CNCCCCCCCCSc1nc(C(C)C)ccc1C(=O)c1cccs1 | inconclusive: 31.6 µM [inhibitor, partial curve] |  |
| CC[C@]1(O)C[C@@H]2CN(CCc3c([nH]c4ccccc34)[C@](C(=O)OC)(c3cc4c(cc3OC)N(C)[C@H]3[C@](O)(C(=O)OC)[C@@H](C(=O)OC)[C@@]5(CC)C=CCN6CC[C@@]43[C@@H]65)C2)C1 | inconclusive: 39.8 µM [inhibitor, partial curve, poor fit] |  |
| CC(=O)N1CCC[C@H]1C(=O)NCC1Cc2cc(C)cc(-c3ccc(Cl)cc3)c2O1 (some centres undefined) |  | inactive: -18.5% |
| O=C1/C(=C\c2ccccc2)C[C@@]2(O)[C@H]3Cc4ccc(O)c5c4[C@@]2(CCN3CC2CC2)[C@H]1O5 | active: 3.98 µM |  |
| CC(=O)Nc1c2sscc-2n(C)c1=O | active: 10 µM |  |
| COc1cc2c(cc1OC)-c1cc(=Nc3c(C)cc(C)cc3C)n(C)c(=O)n1CC2 | active: 14.1 µM and active: 11.2 µM |  |
| CCOC(=O)[C@H](CCc1ccccc1)N[C@H]1CCc2ccccc2N(CC(=O)O)C1=O | inactive |  |
| CC1=CC(=O)C2C(C)(C)CCC[C@@]2(C)[C@@]1(O)CCc1ccoc1 (some centres undefined) | inconclusive: 12.6 µM [inhibitor, single point] |  |
| COC(=O)/C=C\c1cc(O)ccc1O | active: 25.1 µM |  |
| CCCC=Cc1ccc(CN2C(C(C)C)C(=O)N(Cc3cn(CC4CCCCC4)nn3)CCS2(=O)=O)cc1 (centres undefined) | inconclusive: 19.9 µM [inhibitor, partial curve, poor fit] |  |
| CCN(CC)CCC(=O)N1c2ccccc2Sc2ccc(C(F)(F)F)cc21 | inconclusive: 31.6 µM [inhibitor, single point] |  |
| COc1ccccc1CCc1nc2ccccc2n1C1CCN(C(=O)c2cn3ccsc3n2)CC1 |  | inactive: -1.93% |
| CC(C)c1cnc(NC(=O)Cc2ccccc2)s1 |  | inactive: 19.7% |
| CCNC(=O)N1CCN(CCCC(c2ccc(F)cc2)c2ccc(F)cc2)CC1 | inconclusive: 35.5 µM [inhibitor, single point] |  |
| COc1cccc([C@@H]2Oc3ccc(Br)cc3C(=O)[C@H]2OC(=O)Nc2cc(OC)c(OC)c(OC)c2)c1 | inconclusive: 1.26 µM [inhibitor, full curve, poor fit] |  |
| Fc1ccc(N2CCN(Cc3ccc4c(c3)CN(Cc3cccn3-c3cccnc3)CCO4)CC2)cc1 |  | inactive: -19.6% |
| COc1ccc(CC(N)C(=O)N[C@H]2[C@@H](O)[C@H](n3cnc4c(N(C)C)ncnc43)O[C@@H]2CO)cc1 (some centres undefined) | active: 1.26 µM |  |
